In patent CN115124620A:
Results are given in words; binding and its absence hold for the method and conditions named. Some entries that bind do so weakly or less than the wild type.

Sequences of proteins named here, by UniProt entry; tags and fusion partners are left off. Residues count along the entry.
UniProt O14931, residues 19-201: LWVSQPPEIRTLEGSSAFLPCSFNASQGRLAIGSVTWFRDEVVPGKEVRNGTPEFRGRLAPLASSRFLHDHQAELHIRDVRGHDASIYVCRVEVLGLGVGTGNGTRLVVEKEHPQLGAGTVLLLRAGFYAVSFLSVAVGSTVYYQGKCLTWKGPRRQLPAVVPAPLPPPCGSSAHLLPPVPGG

B1: 抗体6 (antibody, V domains shown)
VH: QVQLQQSGAELVRPGVSVKISCKGSGYTFTDYAMHWVKQSHAKSLEWIGIISTYYGDASYNQKFKGKATMTVDKSSSTAYMELARLTSEDSAIYYCARDYDNRYAAMDYWGQGTSVTVSS
VL: DIVMTQAAFSNPVTLGTSASISCRSSKSLLHSNGITYLYWYLQKPGQSPQLLIYQMSNLASGVPDRFSSSGSGTDFTLRISRVEAEDVGVYYCAQNLELPYTFGGGTKLEIK
B2: 抗体3 (antibody, V domains shown)
VH: QGQLQQSGAEVMKPGASVKISCKANGHTFGSYWIEWIKQRPGHGLEWIGEILPGSGSKKYNEKFEGKATFTEETSSNTAYMELTSLTSEDSAVYYCSRGGYYGSRFAYWGQGTLVTVSA
VL: DVVLTQTPLSLPVNIGDQASISCKSTKSLLNSDGFTYLDWYLQKPGQSPQLLIYLVSNRFSGVPDRFSGSGSGTDFTLKISRVEAEDLGVYYCFQSNYLPFTFGSGTKLEIK
B3: 抗体5 (antibody, V domains shown)
VH: VLILKESGGGLVKPGGSLKLSCAASGFAFSSYDMSWVRQTPEKRLEWVATISSGGSYTYYPDSVKGRFTISRDNARNTLYLQMSSLRSEDTALYYCARHFGDHDGYVMDYWGQGTSVIVSS
VL: DIVMTQSPSSLAMSLGQKVTMSCKSSQSLLNSSNQKSNLAWYQQKPGQSPKLLVYFASTRESGVPDRFIGSGSGTDFSLTIRSVQAEDLADYFCQQHYSTPFTFGSGTKLEIK
B4: 抗体2 (antibody, V domains shown)
VH: EVQLQQFGAELVKPGASVKISCKASGYTFTDYNMDWVKQSHGKSLEWIAYINPNYEITTYNQKFKGKATLTVDKSSSTAYMELRSLTSEDTAVYYCARGRGGYDPAMDYWGQGTSVTVSS
VL: SIVMTQTPKFLLVSAGDRVTITCKASQSVSNDVTWSQQKPGQSPKLLIYYASNRYTGVPDRFTGSGYGTDFTFTISTVQAEDLAVYLCQQDNSTPPTFGAGTKLELK
B5: 抗体1 (antibody, V domains shown)
VH: QVQLQQPGAELVKPGASVKLSCKASGYTFTSYWMEWVKLRPGQGFDWIGEINPSNGGTNYNEKFKRKAILTVDKSSSAAYMQLSGLTSEDSAVYYCTIGGDYAWFAYWGQGTLVTVSA
VL: DIKMTQSPSSMYASLGERVTITCKASQDIKSYLSWYQQKPWKSPKTLIFYATSLADGVPSRFSASGSGQDYSLTISSLESDDTATYYCLQHGESPYTFGGGTKLEIK
B6: 抗体4 (antibody, V domains shown)
VH: EVQLVESGGGLVKPGGSLKLSCAASGFTFSDYGMSWIRQTPEKRLEWVASISSGGTYTYYPDSVKGRFTISRDSAKNTLYLQMNSLRSEDTAMYYCARRDGYYSVEYWGQGTSVTVSS
VL: QIVLTQSPAIMSASPGGEVTMTCSASSSVSFMHWYQQKSGTSPKRWIFDTSKLASGVPTRFSGSGSGTSYSLTISSMEAEDAATYYCQQWTTNPPTFGGGTKLEIK

molecular target: NKp30 on NK cells (UniProt O14931); experiment: flow cytometry on NK cells, antibody titrated from 40 μg/mL, FITC anti-mouse secondary

binding, binds:
B1
B2
B3
B4
B5
B6
